# Measured values as given in PubChem BioAssay AID441 (NMMLSC, 2006).
# The chains behind the UniProt entries cited, without tags or fusion partners. Where a name states a change or a piece, a line headed by the entry shows the natural chain unless it says otherwise.
# UniProt P25090: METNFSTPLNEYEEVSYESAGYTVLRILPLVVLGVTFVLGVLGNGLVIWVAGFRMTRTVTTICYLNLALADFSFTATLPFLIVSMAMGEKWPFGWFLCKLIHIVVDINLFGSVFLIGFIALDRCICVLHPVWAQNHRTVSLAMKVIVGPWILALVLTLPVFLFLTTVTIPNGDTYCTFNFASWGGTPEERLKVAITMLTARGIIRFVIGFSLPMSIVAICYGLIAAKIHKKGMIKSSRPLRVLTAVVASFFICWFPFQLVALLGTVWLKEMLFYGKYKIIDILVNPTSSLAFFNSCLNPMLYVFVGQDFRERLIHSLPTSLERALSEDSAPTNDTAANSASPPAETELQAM
# Out of some 24,000 compounds screened, about 70 (0.3%) were called active. The inconclusive results got no clear call from the source; some entries with a clear call stand among them for comparison. Rule as the data show it: active = inhibition above about 30%; inconclusive = no clear call, values can overlap the other calls; inactive = below that.
# Molecular target: N-formyl peptide receptor 2 (Homo sapiens) (UniProt P25090)
# Assay: human FPRL1 ligands by binding competition, primary screen, cell-based, FPR counter-screen, flow cytometry (AID 441);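 also: 0% = buffer alone and 100% = receptor blocker peptide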
# Conditions: FPRL1-expressing cells, fluorescent ligand binding inhibition, hits give high values, concentration not given here
row,Compound,inhibition
1,CCOc1ccc(C2C(C(=O)NC)=C(C)Nc3nc4ccccc4n32)cc1OC (centres undefined),inactive: -2.9%
2,CCN(CC)c1ccc2cc(-c3nc4ccccc4[nH]3)c(=O)oc2c1,inconclusive: -304%
3,O=S(=O)(c1ccc(Br)s1)n1cccn1,inactive: 0.3%
4,O=C(C1=C(O)C(=O)N(Cc2ccccc2)C1c1cccnc1)c1ccco1 (centres undefined),inactive: 1.3%
5,Cc1c(C(=O)NCc2cccnc2)oc2ccc(S(=O)(=O)N3CCCCCC3)cc12,inactive: -8.9%
6,CCOC(=O)Cn1c(=O)oc2cc(S(=O)(=O)Nc3cc(Cl)ccc3OC)ccc21,inconclusive: -63.4%
7,O=C(Cc1nn[nH]n1)NCc1ccccc1Cl,inactive: -2.5%
8,COC(=O)Cn1nc(-c2ccccc2)c2ccccc21,inactive: 4.7%
9,CN(C)c1nc2c(c(=O)[nH]c(=O)n2C)n1Cc1ccccc1Br,inactive: -4.3%
10,COc1ccc2[nH]c(C)c(CN3CCCC(C)C3)c(=O)c2c1 (centres undefined),inactive: -9.3%
11,C=CCn1c(/N=C/c2ccc(N(C)C)cc2)nc2ccccc21,inconclusive: -322%
12,COc1cccc(NS(=O)(=O)c2ccc(Br)s2)c1,inconclusive: -246%
13,COc1ccc(NC(=O)C(c2ccc(C)cc2)N(C)C(=O)c2cnccn2)cc1 (centres undefined),active: 38.3%
14,Cc1ccc2c(c1C)NC(C(=O)O)C1CC=CC21 (centres undefined),inconclusive: -177%
15,CCOC(=O)N1CCN(c2cc(NCCC(=O)O)c3c4c(onc24)-c2ccccc2C3=O)CC1,active: 60.6%
16,Cc1cc(S(=O)(=O)NCCCN2CCOCC2)ccc1F,inconclusive: -59.4%
17,C=CCOc1nc2c(c(=O)n(C)c(=O)n2C)n1C,inconclusive: -69.2%

# Entries listed so far containing a furan ring, fused or not, in the order listed:
row,Compound,inhibition
4,O=C(C1=C(O)C(=O)N(Cc2ccccc2)C1c1cccnc1)c1ccco1 (centres undefined),inactive: 1.3%
5,Cc1c(C(=O)NCc2cccnc2)oc2ccc(S(=O)(=O)N3CCCCCC3)cc12,inactive: -8.9%

# Further entries follow:

row,Compound,inhibition
1,COc1ccc(OC)c(C2/C(=C(/O)c3ccc(C)cc3)C(=O)C(=O)N2Cc2ccco2)c1 (centres undefined),inactive: -6.4%
2,CCOC(=O)c1ccc(NC(=O)Nc2ccc3c4c(cccc24)C(=O)N3CC)cc1,active: 48%
3,C=CCn1c(NC(=O)c2ccccc2)c(C#N)c2nc3ccccc3nc21,active: 32.3%
4,O=c1oc2c3c4c(cc2s1)CCCN4CCC3,inconclusive: -114%
5,COc1ccc(S(=O)(=O)NC(C)C(=O)Nc2cccc(C(C)=O)c2)cc1 (centres undefined),active: 47%
6,COC(=O)C1(S(=O)(=O)c2cccc3nsnc23)CC1,active: 83.5%
7,COc1cc(NS(=O)(=O)c2ccc(Br)s2)cc(OC)c1,inconclusive: -51.9%
8,CCOC(=O)c1c(C)n(C)c2c(C)cc(O)c(OC(C)=O)c12,inconclusive: -183%
9,CCNc1c2c3c(cccc3n(C)c1=O)C(=O)c1ccccc1-2,inconclusive: -183%
10,CCCc1cc(-n2ccnc2)n2c(nc3ccccc32)c1C#N,inconclusive: -215%
11,ON1C2CCCCC2N(O)C1c1c(F)c(F)c(F)c(F)c1F (centres undefined),inactive: 2.7%
12,c1cncc(-c2nc3ccccc3o2)c1,inconclusive: -144%
13,COc1ccc(-c2cc(C(F)(F)F)nc(N3CCCCC3)n2)cc1OC,active: 33.2%
14,O=C(NCCCN1CCN(c2ccc(F)cc2)CC1)c1cccc(N2CCCC2=O)c1,active: 30.9%
15,COc1ccc(C(=O)N2CCN=C2SCc2cccnc2)c(OC)c1,inactive: -7.6%
16,CCOC(=O)Cn1c(=O)oc2cc(S(=O)(=O)Nc3ccc(N(CC)CC)cc3C)ccc21,inconclusive: -56.8%
17,CCOC(=O)c1cn2c3c(c(F)c(F)c(F)c3c1=O)SC(N1CCCC1)=N2,inconclusive: -51%
